In article PMC9582194 (Cell Reports. Physical Science, 2022):
Where a sequence shows no end group, the ends are not given. Some peptides are written in HELM: one residue between dots, names in brackets for other building blocks, links after the first $.

Experiment: general procedure: Fmoc solid-phase peptide synthesis; ChemMatrix Rink amide resin
Conditions: whole synthesis, scale of the general procedure 0.1 mmol

Row | Substance | difficulty met | outcome
1 | PEPTIDE1{[ac].L.A.R.E.N.E.E.L.E.K.E.A.E.E.L.V.V.E.E.D.V.L.E.E.E.I.E.Q.L.E.E.R.N.Y.A.L.R.K.E.I.E.D.L.Q.K.Q.L.E.K.L.[am]}$$$$V2.0 | HW2 and HW3 producing poor yields | –
2 | MASLEQRAEELARENEELEKEAEELVVEEDVLEEEIEQLEERNYALRKEIEDLQKQLEKLGAPHHHHHH | – | HW1 proved to be inaccessible via solid-phase peptide synthesis (SPPS) using standard techniques
3 | PEPTIDE1{[ac].L.E.K.E.A.E.E.L.V.V.E.E.D.V.L.E.E.E.I.E.Q.L.E.E.R.N.Y.A.L.R.K.E.I.E.D.L.Q.K.Q.L.E.K.L.[am]}$$$$V2.0 | HW2 and HW3 producing poor yields | –
